The target in test [1] is FLAG-GST-TRIM21 (human) (UniProt P19474). Description: proximity labelling; CF-PPiD on the diversity protein array: 118 FG-tagged human proteins on glutathione magnetic beads, 1536-well plate, 1x and 3x dual spots; translational mixture of AirID, AirID-TP53 or AirID-IκBα with biotin and ATP; HRP-conjugated anti-biotin antibody; only the target purified.
The target in test [2] is T1, FLAG-GST-LATS2 (human) (UniProt Q9NRM7).
T1 sequence: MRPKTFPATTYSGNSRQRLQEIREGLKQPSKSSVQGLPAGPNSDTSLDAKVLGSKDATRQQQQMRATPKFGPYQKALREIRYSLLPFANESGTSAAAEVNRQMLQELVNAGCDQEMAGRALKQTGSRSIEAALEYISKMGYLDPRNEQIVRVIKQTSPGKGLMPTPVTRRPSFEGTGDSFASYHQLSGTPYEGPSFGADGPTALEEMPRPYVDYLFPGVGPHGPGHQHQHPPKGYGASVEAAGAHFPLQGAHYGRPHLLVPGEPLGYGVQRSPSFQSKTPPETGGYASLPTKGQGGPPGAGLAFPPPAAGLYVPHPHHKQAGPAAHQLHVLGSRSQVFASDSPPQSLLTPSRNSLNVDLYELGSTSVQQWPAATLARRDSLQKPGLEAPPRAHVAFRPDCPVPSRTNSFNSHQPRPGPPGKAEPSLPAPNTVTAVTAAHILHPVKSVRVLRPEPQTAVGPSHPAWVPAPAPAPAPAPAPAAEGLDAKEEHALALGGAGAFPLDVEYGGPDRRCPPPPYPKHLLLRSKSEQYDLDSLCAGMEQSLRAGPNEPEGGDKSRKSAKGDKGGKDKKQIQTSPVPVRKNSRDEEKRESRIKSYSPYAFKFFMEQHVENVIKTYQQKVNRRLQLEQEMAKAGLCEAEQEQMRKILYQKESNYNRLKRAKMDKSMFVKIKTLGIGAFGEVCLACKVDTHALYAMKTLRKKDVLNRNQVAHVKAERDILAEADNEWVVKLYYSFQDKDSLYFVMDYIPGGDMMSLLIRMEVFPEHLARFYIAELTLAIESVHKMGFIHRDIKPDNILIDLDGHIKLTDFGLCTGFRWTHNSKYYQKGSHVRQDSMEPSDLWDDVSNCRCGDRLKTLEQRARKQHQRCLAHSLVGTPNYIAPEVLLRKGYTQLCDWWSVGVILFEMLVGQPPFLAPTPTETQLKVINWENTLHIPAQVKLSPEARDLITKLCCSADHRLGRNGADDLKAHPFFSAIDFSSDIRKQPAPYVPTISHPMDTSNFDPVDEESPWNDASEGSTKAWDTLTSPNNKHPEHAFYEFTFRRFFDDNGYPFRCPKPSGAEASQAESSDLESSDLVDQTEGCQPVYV
Described as above.

Chains of the proteins cited; added tags and fusions are not shown. Lines headed by an entry give the natural chain unless they say otherwise; changes in a name come on top.
UniProt P19474: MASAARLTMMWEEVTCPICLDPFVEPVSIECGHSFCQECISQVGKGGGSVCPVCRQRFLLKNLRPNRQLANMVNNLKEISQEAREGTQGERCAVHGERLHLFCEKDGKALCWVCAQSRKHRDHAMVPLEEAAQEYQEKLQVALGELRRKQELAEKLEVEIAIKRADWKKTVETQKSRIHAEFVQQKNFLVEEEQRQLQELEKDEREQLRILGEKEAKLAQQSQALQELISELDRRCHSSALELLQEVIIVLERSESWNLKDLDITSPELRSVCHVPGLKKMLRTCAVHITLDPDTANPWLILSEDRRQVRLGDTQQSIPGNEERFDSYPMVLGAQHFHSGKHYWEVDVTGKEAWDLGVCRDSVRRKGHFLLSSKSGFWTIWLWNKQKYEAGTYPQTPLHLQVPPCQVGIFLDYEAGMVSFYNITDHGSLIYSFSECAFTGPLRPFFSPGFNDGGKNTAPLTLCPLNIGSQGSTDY
UniProt O14965: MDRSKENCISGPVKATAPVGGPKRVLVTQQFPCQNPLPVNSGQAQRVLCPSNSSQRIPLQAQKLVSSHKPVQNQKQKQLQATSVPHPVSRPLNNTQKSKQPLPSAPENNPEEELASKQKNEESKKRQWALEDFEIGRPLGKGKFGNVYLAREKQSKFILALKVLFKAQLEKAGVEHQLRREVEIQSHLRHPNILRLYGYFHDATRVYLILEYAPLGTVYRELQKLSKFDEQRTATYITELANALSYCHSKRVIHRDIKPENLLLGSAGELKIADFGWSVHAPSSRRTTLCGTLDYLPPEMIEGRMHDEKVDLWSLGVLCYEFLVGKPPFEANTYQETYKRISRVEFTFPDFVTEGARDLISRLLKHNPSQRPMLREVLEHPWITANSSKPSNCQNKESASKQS
UniProt Q9UJQ4: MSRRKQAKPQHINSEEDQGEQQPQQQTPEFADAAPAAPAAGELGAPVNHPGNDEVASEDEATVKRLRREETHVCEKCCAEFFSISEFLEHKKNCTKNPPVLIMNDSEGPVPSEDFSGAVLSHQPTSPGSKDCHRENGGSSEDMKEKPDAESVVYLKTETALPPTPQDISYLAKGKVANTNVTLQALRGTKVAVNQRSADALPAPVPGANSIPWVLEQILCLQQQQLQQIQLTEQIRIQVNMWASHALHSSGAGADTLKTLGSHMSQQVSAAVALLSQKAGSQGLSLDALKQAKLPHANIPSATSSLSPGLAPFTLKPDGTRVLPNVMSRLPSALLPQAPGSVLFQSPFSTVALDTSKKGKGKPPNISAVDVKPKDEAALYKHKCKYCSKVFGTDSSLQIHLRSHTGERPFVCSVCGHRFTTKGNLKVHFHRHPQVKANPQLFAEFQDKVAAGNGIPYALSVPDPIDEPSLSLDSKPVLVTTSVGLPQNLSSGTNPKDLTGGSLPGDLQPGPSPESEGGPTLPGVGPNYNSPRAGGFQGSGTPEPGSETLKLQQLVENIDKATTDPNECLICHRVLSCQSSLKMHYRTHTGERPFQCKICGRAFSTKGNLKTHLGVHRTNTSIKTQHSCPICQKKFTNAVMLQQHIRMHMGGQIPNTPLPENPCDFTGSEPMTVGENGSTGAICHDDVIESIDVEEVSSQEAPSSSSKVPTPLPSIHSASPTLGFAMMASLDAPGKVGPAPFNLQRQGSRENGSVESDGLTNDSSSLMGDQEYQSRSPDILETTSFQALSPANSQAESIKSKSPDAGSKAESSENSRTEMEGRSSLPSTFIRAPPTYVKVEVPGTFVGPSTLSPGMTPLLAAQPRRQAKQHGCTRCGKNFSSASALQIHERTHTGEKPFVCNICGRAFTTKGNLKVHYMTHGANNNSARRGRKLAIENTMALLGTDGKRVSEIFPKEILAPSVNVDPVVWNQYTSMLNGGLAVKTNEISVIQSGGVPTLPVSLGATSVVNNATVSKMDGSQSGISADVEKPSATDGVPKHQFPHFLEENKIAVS
UniProt Q15059: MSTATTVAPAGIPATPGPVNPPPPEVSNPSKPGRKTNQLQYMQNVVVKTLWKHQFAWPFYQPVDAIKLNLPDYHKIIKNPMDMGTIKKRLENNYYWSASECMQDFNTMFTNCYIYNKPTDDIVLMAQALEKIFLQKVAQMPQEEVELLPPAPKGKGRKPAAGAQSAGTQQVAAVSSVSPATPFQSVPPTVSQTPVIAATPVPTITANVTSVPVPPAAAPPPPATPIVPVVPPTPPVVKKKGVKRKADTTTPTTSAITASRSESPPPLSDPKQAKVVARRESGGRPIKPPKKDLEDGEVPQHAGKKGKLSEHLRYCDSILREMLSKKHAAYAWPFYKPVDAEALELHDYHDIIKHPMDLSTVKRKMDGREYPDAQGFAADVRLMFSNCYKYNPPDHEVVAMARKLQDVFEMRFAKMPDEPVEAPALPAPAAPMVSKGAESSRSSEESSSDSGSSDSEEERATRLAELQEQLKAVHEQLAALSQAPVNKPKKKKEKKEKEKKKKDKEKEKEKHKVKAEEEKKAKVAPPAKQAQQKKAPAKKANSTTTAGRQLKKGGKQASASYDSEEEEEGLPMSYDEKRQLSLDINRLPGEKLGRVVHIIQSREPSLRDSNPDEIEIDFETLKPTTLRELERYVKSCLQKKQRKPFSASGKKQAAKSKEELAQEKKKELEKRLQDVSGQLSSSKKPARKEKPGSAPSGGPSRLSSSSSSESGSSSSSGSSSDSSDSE
UniProt P25440: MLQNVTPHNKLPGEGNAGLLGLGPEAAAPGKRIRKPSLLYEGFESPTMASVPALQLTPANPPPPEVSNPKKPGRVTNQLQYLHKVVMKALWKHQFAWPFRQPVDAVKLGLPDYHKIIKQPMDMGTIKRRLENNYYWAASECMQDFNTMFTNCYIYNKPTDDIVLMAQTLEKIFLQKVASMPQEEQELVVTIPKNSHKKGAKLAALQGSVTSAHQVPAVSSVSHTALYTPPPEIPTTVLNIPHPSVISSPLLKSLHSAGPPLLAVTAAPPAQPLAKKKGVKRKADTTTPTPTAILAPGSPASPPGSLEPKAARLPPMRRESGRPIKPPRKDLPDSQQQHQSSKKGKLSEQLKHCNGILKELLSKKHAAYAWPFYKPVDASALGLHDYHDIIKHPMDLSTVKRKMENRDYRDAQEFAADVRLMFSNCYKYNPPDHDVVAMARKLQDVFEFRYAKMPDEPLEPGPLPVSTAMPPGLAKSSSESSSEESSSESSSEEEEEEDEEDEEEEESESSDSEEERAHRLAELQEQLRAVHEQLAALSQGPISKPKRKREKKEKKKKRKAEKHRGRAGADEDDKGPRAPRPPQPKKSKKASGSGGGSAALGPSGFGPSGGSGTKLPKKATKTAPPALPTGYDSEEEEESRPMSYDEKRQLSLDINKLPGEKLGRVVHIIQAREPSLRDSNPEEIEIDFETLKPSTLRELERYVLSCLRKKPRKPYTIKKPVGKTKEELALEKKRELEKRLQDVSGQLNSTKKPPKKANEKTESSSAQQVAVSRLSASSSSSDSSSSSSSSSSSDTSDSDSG
UniProt P25963: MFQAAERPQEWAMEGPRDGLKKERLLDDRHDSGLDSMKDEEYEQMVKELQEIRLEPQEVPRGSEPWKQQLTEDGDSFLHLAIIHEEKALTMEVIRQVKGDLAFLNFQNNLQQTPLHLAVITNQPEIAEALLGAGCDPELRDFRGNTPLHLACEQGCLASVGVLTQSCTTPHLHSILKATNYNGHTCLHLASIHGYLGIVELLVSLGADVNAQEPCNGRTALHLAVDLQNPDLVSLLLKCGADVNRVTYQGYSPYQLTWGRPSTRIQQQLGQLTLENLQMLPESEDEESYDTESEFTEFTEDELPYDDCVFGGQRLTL
UniProt Q96SW2: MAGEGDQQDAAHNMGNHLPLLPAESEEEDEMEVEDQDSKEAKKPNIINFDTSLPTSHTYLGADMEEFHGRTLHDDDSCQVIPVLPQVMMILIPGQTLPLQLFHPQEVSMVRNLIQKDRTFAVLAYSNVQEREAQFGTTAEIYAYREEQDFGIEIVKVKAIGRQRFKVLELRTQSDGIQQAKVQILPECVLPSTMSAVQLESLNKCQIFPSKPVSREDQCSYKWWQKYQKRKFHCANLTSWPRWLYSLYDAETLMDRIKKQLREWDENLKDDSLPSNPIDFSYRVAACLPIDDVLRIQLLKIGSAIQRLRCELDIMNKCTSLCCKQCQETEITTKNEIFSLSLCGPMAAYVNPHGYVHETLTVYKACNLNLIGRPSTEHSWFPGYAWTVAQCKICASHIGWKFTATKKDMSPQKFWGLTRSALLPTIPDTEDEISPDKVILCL
UniProt Q96J77: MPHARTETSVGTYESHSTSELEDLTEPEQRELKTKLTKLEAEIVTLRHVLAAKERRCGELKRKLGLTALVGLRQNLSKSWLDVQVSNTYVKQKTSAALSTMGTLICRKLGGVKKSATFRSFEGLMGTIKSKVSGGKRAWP

Test [3] has as its target FLAG-GST-AURKA (STK15) (human) (UniProt O14965). Described as above.
Test [4] has as its target FLAG-GST-SALL4 (human) (UniProt Q9UJQ4). Description: proximity labelling; CF-PPiD on the magnetic plate with pomalidomide; FG-proteins captured on beads, AirID-fused protein in translational mixture; only the target purified.
Test [5] concerns the target FLAG-GST-BRD3 (human) (UniProt Q15059). Description: proximity labelling; CF-PPiD on the magnetic plate with the PROTAC ARV-825; FG-proteins captured on beads, AirID-fused protein in translational mixture; only the target purified.
In test [6] the target is FLAG-GST-SALL4 (human) (UniProt Q9UJQ4). The description is as above.
In test [7] the target is FLAG-GST-BRD2 (human) (UniProt P25440). Described as above.
Test [8] deals with FLAG-GST-BRD3 (human) (UniProt Q15059). Put plainly: proximity labelling; CF-PPiD on the magnetic plate with DMSO (no compound); FG-proteins captured on beads, AirID-fused protein in translational mixture; only the target purified.
In test [9] the target is FLAG-GST-SALL4 (human) (UniProt Q9UJQ4). The description is as above.
For test [10], the target named is FLAG-GST-BRD2 (human) (UniProt P25440). The test is described as above.
For test [11], the target named is FLAG-GST-SALL4 (human) (UniProt Q9UJQ4). Description: proximity labelling; CF-PPiD on the magnetic plate with 5-hydroxypomalidomide (5HP); FG-proteins captured on beads, AirID-fused protein in translational mixture; only the target purified.
In test [12] the target is AGIA-AirID-IκBα (human) (UniProt P25963). Description: proximity labelling; in HEK293T cells stably expressing AGIA-AirID-IκBα, transfected 24 h, 50 µM D-biotin 2 h; lysis in 1% SDS, boiled; streptavidin bead pull-down (STA-PDA), anti-FLAG immunoblot. (A western blot detects proteins with antibodies after separation by electrophoresis.)

Results are given in words; binding and its absence hold for the method and conditions named. Binding seen in cells or lysates may run through a third protein. Here binding means that the protein was enriched with, or labelled near, the bait; the list need not be complete. For part of these data: No binding means not detected with the bait. For part of these data: Tags and fused reporters may be left off the sequences shown.

For the substance “AirID N-terminally fused to IκBα (from UniProt P25963 1-317) (other; other documents disagree on this pair)”, the binding result in [1] is reported as “no binding”.
For the substance “AirID N-terminally fused to TP53 (from UniProt P04637 1-393)”, the binding result in test [2] is “no binding”; in [3], “binds”.
For “AirID-CRBN-Y384A/W386A mutant (from UniProt Q96SW2 1-442)”, the binding result in test [4], in test [5], in [6], in test [7], in [8] and in test [9] was “no binding” throughout. Moreover, the binding entry in test [10] and in test [11] was “no binding” throughout.
In the case of “TPD52L3 in pCAGGS-MCS-FLAG (from UniProt Q96J77 1-140)”, the binding result in test [12] is given as “binds”.

For the origin of these results see article PMC9217950.
